These are yes or no findings as the source states them, for the method shown. In cells and extracts the contact can be indirect. A yes stands for co-enrichment or nearness to the bait. Other partners may have been found.

Binding data for one molecule are collected here from publication PMC2703648.

In this test the target is GST-IgFn (IgFn region of rat Kalirin12 fused to GST) (rat) (UniProt P97924). Kind of test: affinity purification with mass spectrometry; GST-IgFn on glutathione-Sepharose 4B beads incubated 1 h, 4C with cytosolic and solubilized organellar fractions (5 mg protein) of adult rat cortex, pre-cleared on GST beads; 100 kDa band excised, trypsin digestion, mass spectrometry; only the target purified.

B1: dynamin1 (rat, endogenous) (protein, UniProt P21575 1-864)
chain: MGNRGMEDLIPLVNRLQDAFSAIGQNADLDLPQIAVVGGQSAGKSSVLENFVGRDFLPRGSGIVTRRPLVLQLVNSTTEYAEFLHCKGKKFTDFEEVRLEIEAETDRVTGTNKGISPVPINLRVYSPHVLNLTLVDLPGMTKVPVGDQPPDIEFQIRDMLMQFVTKENCLILAVSPANSDLANSDALKIAKEVDPQGQRTIGVITKLDLMDEGTDARDVLENKLLPLRRGYIGVVNRSQKDIDGKKDITAALAAERKFFLSHPSYRHLADRMGTPYLQKVLNQQLTNHIRDTLPGLRNKLQSQLLSIEKEVDEYKNFRPDDPARKTKALLQMVQQFAVDFEKRIEGSGDQIDTYELSGGARINRIFHERFPFELVKMEFDEKELRREISYAIKNIHGIRTGLFTPDLAFEATVKKQVQKLKEPSIKCVDMVVSELTSTIRKCSEKLQQYPRLREEMERIVTTHIREREGRTKEQVMLLIDIELAYMNTNHEDFIGFANAQQRSNQMNKKKTSGNQDEILVIRKGWLTINNIGIMKGGSKEYWFVLTAENLSWYKDDEEKEKKYMLSVDNLKLRDVEKGFMSSKHIFALFNTEQRNVYKDYRQLELACETQEEVDSWKASFLRAGVYPERVGDKEKASETEENGSDSFMHSMDPQLERQVETIRNLVDSYMAIVNKTVRDLMPKTIMHLMINNTKEFIFSELLANLYSCGDQNTLMEESAEQAQRRDEMLRMYHALKEALSIIGDINTTTVSTPMPPPVDDSWLQVQSVPAGRRSPTSSPTPQRRAPAVPPARPGSRGPAPGPPPAGSALGGAPPVPSRPGASPDPFGPPPQVPSRPNRAPPGVPSRSGQASPSRPESPRPPFDL
In the case of B1, the binding entry is “binds”.
